Test system: tubulin
Assay: inhibition of [3H]colchicine binding to tubulin
Conditions: 100 μM inhibitor, 1.0 μM tubulin, 2 μM [3H]colchicine, 10 min at 37° C.; ± S.D.
Description: Incubation was for 10 min. at 37° C.
Incubation was for 10 mi. at 37° C. Average values obtained in three independent experiments are presented in the table, except for 2-methoxyestrone, which was only examined twice. S.D., standard deviation.

For `CC/C(=C(/CC)c1ccc(O)cc1)c1ccc(O)cc1` [Diethylstilbestrol], the “Percentage Inhibition of colchicine binding to tubulin” value was 30 ± 4%.
